Assay results published in patent US20250289905A1 (MIRIMGENE, published 2025).
Where a chain is given by its changes, count along the chain named. No constants are given. Whether binding was seen depends on the method and setting. Some results given as binding are weak or reduced against the parent protein; the word gives no strength.

T1: rat-derived WARS1 recombinant protein (rat, UniProt Q6P7B0 1-481, limits assumed)
T1 construct: Recombinant, His-tagged (detected with anti-His tag antibody); construct not described; also called rat WARS1
T1 sequence (looked up): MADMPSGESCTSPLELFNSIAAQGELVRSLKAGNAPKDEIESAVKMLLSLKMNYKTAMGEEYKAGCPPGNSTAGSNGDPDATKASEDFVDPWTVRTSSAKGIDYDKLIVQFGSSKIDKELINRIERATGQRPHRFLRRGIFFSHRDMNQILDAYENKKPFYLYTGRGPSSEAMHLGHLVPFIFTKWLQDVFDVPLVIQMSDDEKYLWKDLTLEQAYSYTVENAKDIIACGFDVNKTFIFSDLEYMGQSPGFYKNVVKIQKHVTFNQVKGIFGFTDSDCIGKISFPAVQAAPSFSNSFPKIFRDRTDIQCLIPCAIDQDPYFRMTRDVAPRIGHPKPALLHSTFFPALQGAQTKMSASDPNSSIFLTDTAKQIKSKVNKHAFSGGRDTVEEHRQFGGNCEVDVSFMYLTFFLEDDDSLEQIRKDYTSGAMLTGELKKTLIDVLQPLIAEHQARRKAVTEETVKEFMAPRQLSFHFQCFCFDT

T2: human WARS1 recombinant protein (human, UniProt P23381 2-471, limits assumed)
T2 sequence: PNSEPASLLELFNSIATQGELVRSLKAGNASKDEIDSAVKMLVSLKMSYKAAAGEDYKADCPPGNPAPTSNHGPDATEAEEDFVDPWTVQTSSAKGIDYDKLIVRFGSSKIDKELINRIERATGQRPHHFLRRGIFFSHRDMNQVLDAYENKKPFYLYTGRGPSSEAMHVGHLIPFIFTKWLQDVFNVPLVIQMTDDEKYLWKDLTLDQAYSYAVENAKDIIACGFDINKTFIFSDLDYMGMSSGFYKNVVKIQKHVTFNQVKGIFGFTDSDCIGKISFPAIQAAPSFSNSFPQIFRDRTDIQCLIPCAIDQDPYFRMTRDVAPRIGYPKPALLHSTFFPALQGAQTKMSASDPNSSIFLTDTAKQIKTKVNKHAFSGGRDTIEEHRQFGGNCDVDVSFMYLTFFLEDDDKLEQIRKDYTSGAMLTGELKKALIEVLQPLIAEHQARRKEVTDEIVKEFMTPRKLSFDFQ

T3: mouse-derived WARS1 recombinant protein (mouse, UniProt P32921 1-481, limits assumed)
T3 construct: Recombinant, His-tagged (detected with anti-His tag antibody); construct not described; In the western blot also secreted WARS1 from J774A.1 supernatant and mouse serum; also called mouse WARS1
T3 sequence (looked up): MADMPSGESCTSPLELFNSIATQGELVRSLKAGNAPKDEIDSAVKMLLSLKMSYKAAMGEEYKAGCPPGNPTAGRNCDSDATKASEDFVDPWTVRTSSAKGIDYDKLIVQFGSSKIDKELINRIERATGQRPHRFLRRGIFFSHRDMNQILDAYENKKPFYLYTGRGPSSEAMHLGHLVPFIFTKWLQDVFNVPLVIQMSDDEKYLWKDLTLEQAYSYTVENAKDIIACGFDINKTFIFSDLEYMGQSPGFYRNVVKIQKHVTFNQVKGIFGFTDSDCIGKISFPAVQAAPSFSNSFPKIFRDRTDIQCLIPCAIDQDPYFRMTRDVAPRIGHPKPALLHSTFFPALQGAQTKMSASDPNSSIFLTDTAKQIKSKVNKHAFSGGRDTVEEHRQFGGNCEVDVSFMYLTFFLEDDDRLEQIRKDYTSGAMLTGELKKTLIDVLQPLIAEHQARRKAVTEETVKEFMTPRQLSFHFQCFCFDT

B1: SHL/ILN (antibody, V domains shown)
VH: EVQLLESGGGLVQPGGSLRLSCAASGFTFSSYDMSWVRQAPGKGLEWVSAISSGGSSIYYADSVKGRFTISRDNSKNTLYLQMNSLRAEDTAVYYCARDVAWDMLGDFDYWGQGTLVTVSS
VL: QSVLTQPPSASGTPGQRVTISCTGSSSNIGSNYVYWYQQLPGTAPKLLIYANILRPSGVPDRFSGSKSGTSASLAISGLRSEDEADYYCGAWDDSNSAYVFGGGTKLTVLT
notes: L-CDR2 and L-CDR3 variant of GKB101; also called SHL/ILN antibody
B2: SHL/LLN (antibody, V domains shown)
VH: B1 VH
VL: B1 VL with I53L
notes: L-CDR2 and L-CDR3 variant of GKB101; also called SHL/LLN antibody
B3: SHL/QLN (antibody, V domains shown)
VH: B1 VH
VL: B1 VL with I53Q
notes: L-CDR2 and L-CDR3 variant of GKB101; also called SHL/QLN antibody

molecular target: T1, rat-derived WARS1 recombinant protein; assay: western blot; recombinant protein
Description: (§1) At this time, a WARS1 recombinant protein (human, mouse, pig, marmoset (NHP), or rat-derived), cell culture medium, and human or mouse serum were used as WARS1 protein samples. In particular, the cell culture medium was used by treating the human monocyte cell line, THP-1, or the mouse macrophage cell line, J774.1A, with LPS (lipopolysaccharide, 100 ng/ml) for 24 hours to induce an inflammatory response, and then the cell culture supernatant was obtained for use.
(§2) 30 μg of each of the WARS1 recombinant protein (human, mouse, pig, marmoset (NHP), or rat-derived), the cell supernatant obtained using the method above, and mouse or human serum was loaded onto 8% SDS-PAGE, then transferred to a PVDF membrane (Millipore). Afterwards, the membrane was reacted with 1 μg/ml of GKB101 or a variant antibody thereof for 1 hour each, then washed with TBST (TBS+Tween20) three times. Afterwards, it was reacted with a secondary antibody (anti-human IgG HRP, Millipore) for 1 hour, then washed with TBST three times to be treated with ECL (West® bright ECL, Advanta) to identify its protein expression (LAS-4000, Fujifilm).

Binder	binding
B1	binds
B2	binds
B3	binds

molecular target: T2, human WARS1 recombinant protein; assay: direct ELISA and sandwich ELISA, recombinant WARS1

Binder	binding
B1	binds
B2	binds
B3	binds

molecular target: T3, mouse-derived WARS1 recombinant protein; assay: direct ELISA and sandwich ELISA, recombinant WARS1

Binder	binding
B1	binds
B2	binds
B3	binds

molecular target: T1, rat-derived WARS1 recombinant protein; assay: direct ELISA and sandwich ELISA, recombinant WARS1

Binder	binding
B1	binds
B2	binds
B3	binds

molecular target: T2, human WARS1 recombinant protein; assay: western blot; recombinant protein, THP-1 culture supernatant, human serum
Description: as §1, §2

Binder	binding
B1	binds
B2	binds
B3	binds

molecular target: T3, mouse-derived WARS1 recombinant protein; assay: western blot; recombinant protein, J774A.1 culture supernatant, mouse serum
Description: as §1, §2

Binder	binding
B1	binds
B2	binds
B3	binds
